Measured values: article doi:10.1101/2020.12.01.407320
Results are given in words; binding and its absence hold for the method and conditions named. In cells and extracts the contact can be indirect. Some binding calls cover weakened binding; strength is not graded here. Sequences can lack the tags named with a protein.

Sequences of proteins named here, by UniProt entry; tags and fusion partners are left off. A change or cut given only in a name is not applied to a line headed by its entry. A line that says so, or that is headed by a name, gives the form on record, which may keep a tag or linker.
GFP tagged RTN3 (human (cDNA from HEK293T)) (O95197, form named): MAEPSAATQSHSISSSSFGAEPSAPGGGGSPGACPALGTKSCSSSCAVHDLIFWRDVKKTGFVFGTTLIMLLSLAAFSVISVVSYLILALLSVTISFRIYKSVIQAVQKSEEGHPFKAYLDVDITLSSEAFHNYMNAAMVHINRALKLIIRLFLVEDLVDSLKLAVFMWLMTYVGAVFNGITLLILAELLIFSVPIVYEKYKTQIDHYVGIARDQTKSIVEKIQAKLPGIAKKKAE

Assays:
[1] = target: GFP tagged RTN3 (human (cDNA from HEK293T)) (UniProt O95197); experiment: co-IP
[2] = target: GFP tagged TRIM25 (human (cDNA from HEK293T)), Q14258; experiment: co-IP; conditions: remark: other sources report otherwise

Row | Binder | binding [1] | binding [2]
1 | Flag-RIG-I (protein, UniProt O95786 1-925) MTTEQRRSLQAFQDYIRKTLDPTYILSYMAPWFREEEVQYIQAEKNNKGPMEAATLFLKFLLELQEEGWFRGFLDALDHAGYSGLYEAIESWDFKKIEKLEEYRLLLKRLQPEFKTRIIPTDIISDLSECLINQECEEILQICSTKGMMAGAEKLVECLLRSDKENWPKTLKLALEKERNKFSELWIVEKGIKDVETEDLEDKMETSDIQIFYQEDPECQNLSENSCPPSEVSDTNLYSPFKPRNYQLELALPAMKGKNTIICAPTGCGKTFVSLLICEHHLKKFPQGQKGKVVFFANQIPVYEQQKSVFSKYFERHGYRVTGISGATAENVPVEQIVENNDIIILTPQILVNNLKKGTIPSLSIFTLMIFDECHNTSKQHPYNMIMFNYLDQKLGGSSGPLPQVIGLTASVGVGDAKNTDEALDYICKLCASLDASVIATVKHNLEELEQVVYKPQKFFRKVESRISDKFKYIIAQLMRDTESLAKRICKDLENLSQIQNREFGTQKYEQWIVTVQKACMVFQMPDKDEESRICKALFLYTSHLRKYNDALIISEHARMKDALDYLKDFFSNVRAAGFDEIEQDLTQRFEEKLQELESVSRDPSNENPKLEDLCFILQEEYHLNPETITILFVKTRALVDALKNWIEGNPKLSFLKPGILTGRGKTNQNTGMTLPAQKCILDAFKASGDHNILIATSVADEGIDIAQCNLVILYEYVGNVIKMIQTRGRGRARGSKCFLLTSNAGVIEKEQINMYKEKMMNDSILRLQTWDEAVFREKILHIQTHEKFIRDSQEKPKPVPDKENKKLLCRKCKALACYTADVRVIEECHYTVLGDAFKECFVSRPHPKPKQFSSFEKRAKIFCARQNCSHDWGIHVKYKTFEIPVIKIESFVVEDIATGVQTLYSKWKDFHFEKIPFDPAEMSK | binds | –
2 | Flag-RIG-I, O95786 1-925 (protein) MTTEQRRSLQAFQDYIRKTLDPTYILSYMAPWFREEEVQYIQAEKNNKGPMEAATLFLKFLLELQEEGWFRGFLDALDHAGYSGLYEAIESWDFKKIEKLEEYRLLLKRLQPEFKTRIIPTDIISDLSECLINQECEEILQICSTKGMMAGAEKLVECLLRSDKENWPKTLKLALEKERNKFSELWIVEKGIKDVETEDLEDKMETSDIQIFYQEDPECQNLSENSCPPSEVSDTNLYSPFKPRNYQLELALPAMKGKNTIICAPTGCGKTFVSLLICEHHLKKFPQGQKGKVVFFANQIPVYEQQKSVFSKYFERHGYRVTGISGATAENVPVEQIVENNDIIILTPQILVNNLKKGTIPSLSIFTLMIFDECHNTSKQHPYNMIMFNYLDQKLGGSSGPLPQVIGLTASVGVGDAKNTDEALDYICKLCASLDASVIATVKHNLEELEQVVYKPQKFFRKVESRISDKFKYIIAQLMRDTESLAKRICKDLENLSQIQNREFGTQKYEQWIVTVQKACMVFQMPDKDEESRICKALFLYTSHLRKYNDALIISEHARMKDALDYLKDFFSNVRAAGFDEIEQDLTQRFEEKLQELESVSRDPSNENPKLEDLCFILQEEYHLNPETITILFVKTRALVDALKNWIEGNPKLSFLKPGILTGRGKTNQNTGMTLPAQKCILDAFKASGDHNILIATSVADEGIDIAQCNLVILYEYVGNVIKMIQTRGRGRARGSKCFLLTSNAGVIEKEQINMYKEKMMNDSILRLQTWDEAVFREKILHIQTHEKFIRDSQEKPKPVPDKENKKLLCRKCKALACYTADVRVIEECHYTVLGDAFKECFVSRPHPKPKQFSSFEKRAKIFCARQNCSHDWGIHVKYKTFEIPVIKIESFVVEDIATGVQTLYSKWKDFHFEKIPFDPAEMSK | – | binds
